Experimental data taken from US20220002427A1, “BISPECIFIC ANTIBODY AGAINST BCMA AND CD3 AND AN IMMUNOLOGICAL DRUG FOR COMBINED USE IN TREATING MULTIPLE MYELOMA” (ENGMAB SARL, priority 2016, published 2022).
Residue numbers refer to the chain shown, from its start. No constants are given. Whether binding was seen depends on the method and setting. Some entries that bind do so weakly or less than the wild type. Blank lines part the entries; values can stand above or below the binder they belong to.

Sequences of proteins named here, by UniProt entry; tags and fusion partners are left off.
UniProt Q02223: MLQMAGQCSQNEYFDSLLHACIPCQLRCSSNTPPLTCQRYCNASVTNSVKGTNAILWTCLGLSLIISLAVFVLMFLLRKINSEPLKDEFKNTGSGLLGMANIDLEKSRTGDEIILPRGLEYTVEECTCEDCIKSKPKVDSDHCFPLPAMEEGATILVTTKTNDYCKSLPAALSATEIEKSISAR

Molecular target: human BCMA on cells (human) (UniProt Q02223)
Experiment: flow cytometry on HEK-huBCMA cells, detection with PE-labelled anti-human Fc

- binding: binds
B1: Mab 34 (antibody, V domains shown)
VH: EVQLLESGGGLVQPGGSLRLSCAASGFTFYTNAMGWVRQAPGKGLEWVSAINRFGGSTYYADSVKGRFTISRDNSKNTLYLQMNSLRAEDTAVYYCAKVLGWFDYWGQGTLVTVSS
VL: EIVLTQSPGTLSLSPGERATLSCRASQSVSSYYLAWYQQKPGQAPRLLISGAGSRATGIPDRFSGSGSGTDFTLTISRLEPEDFAVYYCQQYGYPPDFTFGQGTKVEIK

- binding: binds
B2: Mab 14 (antibody, V domains shown)
VH: B1 VH
VL: B1 VL with S31D, Y32E, A35S, S50H, G51S, G53S, S54T, T75A

- binding: binds
B3: Mab 28 (antibody, V domains shown)
VH: EVQLLESGGGLVQPGGSLRLSCAASGFTFSSAPMGWVRQAPGKGLEWVSAISYIGHTYYADSVKGRFTISRDNSKNTLYLQMNSLRAEDTAVYYCAKVLGWFDYWGQGTLVTVSS
VL: B1 VL

- binding: binds
B4: Mab 44 (antibody, V domains shown)
VH: B3 VH
VL: B1 VL with S31D, Y32E, A35S, S50H, G51S, G53S, S54T, T75A
